From publication PMC4318453
No constants are given. Whether binding was seen depends on the method and setting. Binding can be weak; no strength is given. Sequences can lack the tags named with a protein.

By UniProt entry, the sequences of proteins in these tests, tags left out. Where a name states a change or a piece, a line headed by the entry shows the natural chain unless it says otherwise.
UniProt P12004: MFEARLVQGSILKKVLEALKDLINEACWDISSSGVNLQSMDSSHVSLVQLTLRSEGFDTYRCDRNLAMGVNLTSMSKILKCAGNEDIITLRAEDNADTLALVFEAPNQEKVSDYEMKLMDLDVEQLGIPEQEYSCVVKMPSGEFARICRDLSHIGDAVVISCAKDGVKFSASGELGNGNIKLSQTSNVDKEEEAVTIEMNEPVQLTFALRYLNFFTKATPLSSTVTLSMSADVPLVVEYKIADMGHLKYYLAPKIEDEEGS

Target: T1, GST-agnoprotein (BK polyomavirus (BKPyV)) (UniProt P03085)
T1 sequence: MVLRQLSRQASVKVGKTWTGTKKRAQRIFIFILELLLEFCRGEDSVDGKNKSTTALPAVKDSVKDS
Test: pull-down; GST pull-down with purified GST-agnoprotein incubated with PCNA mutants; immunoblot with anti-agnoprotein and anti-PCNA; both purified

Row | Substance | binding
1 | PCNA mutant VDK188 (to Ala) (from UniProt P12004) | binds
2 | PCNA mutant SHV43AAA (from UniProt P12004) | binds
3 | PCNA mutant QLGI125 (to Ala) (from UniProt P12004) | binds
